Data reported in article PMC7829778, “Optimization of 1,4-Naphthoquinone Hit Compound: A Computational, Phenotypic, and In Vivo Screening against Trypanosoma cruzi” (Molecules, 2021).

What was measured:
Assay type in all cases: cell-based, Trypanosoma cruzi
[1] = system: intracellular amastigotes of T. cruzi (Dm28c-Luc clone); assay: Luminescent screening against intracellular amastigotes in infected Vero cells; conditions: SI = CC50 Vero cells/IC50 of amastigote forms
Protocol: (§1) T. cruzi Dm28c-Luc clone, genetically modified to express firefly luciferase, and Y strain were used in the drug screening assay. Vero cells were infected with T. cruzi, Dm28c-Luc or Y strain, in a 10:1 parasites/host cell ratio and maintained at 37 °C in humidified atmosphere of 5% CO2. Trypomastigotes were harvested from the infected culture supernatant on the 4th day post-infection (dpi) followed by quantification of the number of parasites/mL in Neubauer chamber.
The effect of the compounds against intracellular amastigotes was screened in 72 h T. cruzi-infected Vero cells. Briefly, Vero cells seeded (1.5 × 10^4 cells/well) on 96-well white plate infected with trypomastigotes (Dm28c-Luc) at a 10:1 multiplicity of parasites/cell. After 24 h of infection, the cultures were washed with PBS and then, treated for 72 h at 37 °C with naphthoquinone derivatives and Bz (0.41–100 µM). After treatment, luciferin (300 µg/mL) was added to the culture and the viability of the parasites was assessed by reading the luminescent signal using the FlexStation 3 reader. Controls were also performed in no-toxic concentrations of DMSO (≤1%).

[2] = system: T. cruzi trypomastigotes Dm28c-Luc; assay: Trypanocidal activity against trypomastigotes, Dm28c-Luc clone (luciferase); conditions: SI = CC50 Vero cells/IC50 trypomastigote forms
Protocol: as §1
(§2) Screening of the compounds was performed against trypomastigotes and intracellular amastigote forms. Trypomastigotes (1 × 10^6 parasites/well), Dm28c-Luc clone and Y strain, were incubated for 24 h at 37 °C with the 1,4 naphthoquinone derivatives and Bz (0.41–100 μM) and their viability determined by the activity of the luciferase enzyme, after addition of luciferin substrate (300 μg/mL), or CellTiter Glo. The luminescent signal was detected on the FlexStation 3 reader.

[3] = system: T. cruzi trypomastigotes Y strain; assay: Trypanocidal activity against trypomastigotes, Y strain (CellTiter Glo); conditions: SI = CC50 Vero cells/IC50 trypomastigote forms
Protocol: as §1, §2

SMILES | SI [1] | SI Trypomastigotes Dm28c-Luc [2] | SI Trypomastigotes Y [3]
O=C(Cn1ccnc1[N+](=O)[O-])NCc1ccccc1 [Bz, benznidazole, reference compound] | >357 | >28.6 | >34.9
O=C1C(O)=C(C(Sc2ccc(Cl)cc2)c2ccc(Cl)cc2)C(=O)c2ccccc21 (stereo not shown) [Compound 1a, 2-((4-chlorophenyl)((4-chlorophenyl)thio)methyl)-3-hydroxynaphthalene-1,4-dione] | 7.0 | 4.8 | 15.0
O=C1C(O)=C(C(Sc2ccc(Cl)cc2)c2ccccc2Cl)C(=O)c2ccccc21 (stereo not shown) [Compound 1c, 2-((2-chlorophenyl)((4-chlorophenyl)thio)methyl)-3-hydroxynaphthalene-1,4-dione] | 4.7 | 5.1 | 10.2
O=C1C(O)=C(C(Sc2ccc(Cl)cc2Cl)c2ccccc2)C(=O)c2ccccc21 (stereo not shown) [Compound 1d, 2-(((2,4-dichlorophenyl)thio)(phenyl)methyl)-3-hydroxynaphthalene-1,4-dione] | 6.2 | 8.9 | 29.3
O=C1C(O)=C(C(Sc2ccc(Cl)cc2)c2cn(-c3cc(Cl)cc(Cl)c3)nn2)C(=O)c2ccccc21 (stereo not shown) [Compound 1e, 2-(((4-chlorophenyl)thio)(1-(3,5-dichlorophenyl)-1H-1,2,3-triazol-4-yl)methyl)-3-hydroxynaphthalene-1,4-dione] | 3.7 | 7.5 | 7.2
COc1ccc(C(Sc2ccc(Cl)cc2)C2=C(O)C(=O)c3ccccc3C2=O)cc1 (stereo not shown) [Compound 1g, 2-(((4-chlorophenyl)thio)(4-methoxyphenyl)methyl)-3-hydroxynaphthalene-1,4-dione] | > 10 and 14.9 | – | –
COc1ccc(C(Sc2ccccc2C)C2=C(O)C(=O)c3ccccc3C2=O)cc1 (stereo not shown) [Compound 2b, 2-Hydroxy-3-((4-methoxyphenyl)(o-tolylthio)methyl) naphthalene-1,4-dione] | 3.9 | 1.7 | 1.5
COc1ccc(C(Sc2ccc(F)cc2)C2=C(O)C(=O)c3ccccc3C2=O)cc1 (stereo not shown) [Compound 2e, 2-(((4-fluorophenyl)thio)(4-methoxyphenyl)methyl)-3-hydroxynaphthalene-1,4-dione] | 7.0 | 1.9 | 2.3
COc1ccc(C(Sc2ccc3ccccc3c2)C2=C(O)C(=O)c3ccccc3C2=O)cc1 (stereo not shown) [Compound 2h, 2-Hydroxy-3-((4-methoxyphenyl)(naphthalen-2-ylthio)methyl) naphthalene-1,4-dione] | 2.8 | 2.9 | 2.5

Values joined by “and” are separate entries in the source; they are usually repeats but may differ in a detail not shown here. Equal entries are not always repeated.
